Values from PubChem BioAssay AID720505 (Drosophila RNAi Screening Center, 2013)
Screen: 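Genes needed for store-operated calcium entry in fly cells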 (primary screen). Cell system: Drosophila S2R+ cells. Reagent: long dsRNA against Drosophila genes. Conditions: thapsigargin (2 µM) in calcium-free buffer to empty internal stores, then 2 mM calcium added back. Detection: 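Stores emptied by 2 µM thapsigargin without calcium, then 2 mM calcium re-added; fluo-4 fluorescence followed by FLIPR in 384-well plates, per-well averaged endpoint, raw; two screen passes, some wells retested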. Direction: calcium signal and retest calcium signal: higher = more calcium entry after store depletion. Call rule: 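Knock-downs counted as hits when calcium entry dropped relative to STIM1 positive and Rho1 negative controls present on each plate; roughly 1500 genes called, with reductions of differing size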. Calls: active = called as lowering calcium entry; inactive = not called.
The deposit covers about 20,000 reagents; shown is an unselected part of those with a known target gene and a result. Of all reagents, about 2,100 (10%) were called active. 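Raw plate signals without normalisation; calls rest on control-based scores that were not deposited; replicate 2 separates called from uncalled poorly.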 The numbers tell different reagents against one gene apart. A plus sign joins genes that one reagent is predicted to hit. Not stated in the record: the amount of reagent, the time to read-out.

Gene	reagent	calcium signal, replicate 1	calcium signal, replicate 2	retest calcium signal, replicate 1	retest calcium signal, replicate 2	Outcome
Srr	1	102	79.8			inactive
Gr64a	1	104	93.8			inactive
CG15650	1	174	81.9			inactive
Rif1	1	75	92.7			inactive
Socs16D	1	132	146			inactive
Socs16D	2	110	102			inactive
Or71a	1	106	162			inactive
Mnn1	1	195	122			inactive
Rab18	1	65.3	82.6			active
eIF2beta	1	62.7	92.5			inactive
CG14546	1	275	167			inactive
Pld	1	180	120			inactive
CG1943	1	120	161			inactive
CG17270	1	166	420			inactive
Sugb	1	126	126			inactive
fzr	1	299	126			inactive
TwdlL	1	174	155			inactive
Mau2	1	150	148			inactive
AQP	1	126	157			inactive
Prip	1	182	145			inactive
CG15864	1	110	106			inactive
CG32061	1	69.5	129			inactive
Gapdh2	1	114	120			inactive
Prosbeta4R2	1	105	134			inactive
CG4066	1	123	89.3			inactive
Vha68-1	1	93	101			inactive
Atpalpha	1	177	328			inactive
d-cup	1	55.8	204			active
CG4768	1	95.8	94	84.7	107	inactive
CG30039	1	114	87.9			inactive
mbt	1	116	129			inactive
mbt	2	118	156			inactive
Ndg	1	117	83.1			inactive
Zw10	1	118	118			inactive
Men-b	1	169	145			inactive
Dbx	1	66.8	58.9			active
Dbx	2	55.9	114			inactive
Dbx	3	75.4	98.6			inactive
mex1	1	90.5	89.4			inactive
stmA	1	56	60.8			active
stmA	2	158	142			inactive
stmA	3	108	237			inactive
msps	1	134	161			inactive
CG9062	1	107	126			inactive
Rh4	1	118	186	114	93	inactive
Fili	1	79.7	5438			inactive
Fili	2	172	117			inactive
Fili	3	197	123			inactive
Cht9	1	131	114			inactive
robls54B	1	159	106			inactive
CG11961	1	135	83.4			inactive
CG4998	1	81.9	194			inactive
CG4998	2	91.2	153			inactive
Atf-2 + veg (retired record)	1	240	82.8			inactive
Atf-2 + veg (retired record)	2	62.9	100			inactive
Dcr-1	1	189	257			inactive
rha	1	59.9	72.4			active
CG15120	1	140	149			inactive
CG15200	1	96.5	82.6			inactive
t	1	77.3	94.3			inactive
beat-IIIc	1	99.7	126			inactive
beat-IIIc	2	130	207			inactive
RpS28b	1	147	52			active
CG42537	1	117	130			inactive
CG8159	1	91.2	130			inactive
CG17684	1	116	91.8			inactive
CG17684	2	68.5	201			active
adp	1	165	88.6			inactive
Scm	1	115	105			inactive
dbr	1	90.7	123			inactive
Rpp30	1	72.9	151			inactive
VhaAC45RP	1	102	153			inactive
Vm26Ac	1	154	89.5			inactive
Targ2	1	81.9	139			inactive
Acp95EF + Spase22-23	1	178	136			inactive
CG14234	1	123	141			inactive
CG14234	2	52.5	101			active
Top3beta	1	170	115			inactive
CG12105	1	147	131			inactive
Smg5	1	104	119			inactive
Flo1	1	91.4	131			inactive
CG10747	1	120	86.1			inactive
Pink1	1	183	143			inactive
Best4	1	82.1	130			inactive
Etfb	1	93.8	122			inactive
Fkbp59	1	171	174			inactive
pds5	1	171	135			inactive
CG4476	1	108	99.8			inactive
CG42795	1	67.7	109			active
CG11334	1	82	107			inactive
Vajk4	1	102	125			inactive
Vajk4	2	219	135			inactive
CG32085	1	99.1	101			inactive
CG32085	2	99.1	96.7			inactive
CG32085	3	86.8	97.1			inactive
FucTC	1	105	11376			inactive
PolZ1	1	187	173			inactive
CG6006	1	138	243			inactive
Nrk	1	144	113			inactive
Usp14	1	85	132			inactive
unc-13-4A	1	91.7	30.6			inactive
unc-13-4A	2	67.5	53.1			inactive
unc-13-4A	3	55.6	46			active
unc-13-4A	4	70.7	60.1			inactive
Obp56d	1	146	228			inactive
CG16998	1	126	117			inactive
